Results deposited as PubChem BioAssay AID504791 (Drosophila RNAi Screening Center, 2011)
The screen tested about 23,000 reagents; below is a random part of those with a known target gene and a result. Over the whole deposit, 199 (0.86%) are marked active. 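Plate-scaled ratios behind the calls are not deposited; printed light signals are raw; many rows marked increased or decreased are still called inactive.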 Reagents against one gene are numbered here. Names joined by + are all predicted targets of the reagent. Not stated in the record: the direction of the score.

Assay: 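Genes whose knock-down strengthens or weakens small-RNA reporter silencing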 (primary screen)
Cells: Drosophila S2-derived reporter cells
Knock-down reagent: long dsRNA against Drosophila genes, about 150-250 ng dsRNA per well (siRNA assay); about 80-120 ng (miRNA assay)
Time to read-out: about 5 days (siRNA assay); about 4 days (miRNA assay)
Challenge: copper sulfate induction of reporters: 25 µM (siRNA assay); 200 mM stated (miRNA assay), 1-2 days before reading
Measured: 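Dual luciferase assay: Renilla to firefly signal ratio in each well, scaled to the mean ratio of its plate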
Hit rule: 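a well was a first-pass pick when its plate-scaled ratio rose above 1.5 (siRNA assay) or 1.6 (miRNA assay), or dropped below 0.6; a gene counted only if two separate dsRNAs agreed on retest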

target,reagent,miRNA reporter change,"stable assay Renilla, run 1 (luminescence)","stable assay firefly, run 1 (luminescence)",outcome
Sox14,1,,5376,3.89e5,inactive
Sox14,2,reporter ratio lowered past the hit cutoff,,,active
CG4324,1,,6442,4.57e5,inactive
mTor,1,,29568,3.19e5,inactive
CG17931 + CG42446,1,,6383,2.74e5,inactive
Trm1,1,,26901,6.18e5,inactive
CG4325,1,,5120,2.14e5,inactive
CG4325,2,,5111,4.37e5,inactive
CG13700,1,,6647,3.07e5,inactive
CG2267,1,,6996,4.09e5,inactive
Bhmt,1,,7611,4.86e5,inactive
Acyp2,1,,5616,3.50e5,inactive
Mipp2,1,,7475,4.41e5,inactive
sphinx2,1,,9779,5.75e5,inactive
EMC2B,1,,8548,4.81e5,inactive
hth,1,,6651,3.87e5,inactive
Cpr78Cc,1,,7588,4.92e5,inactive
gas,1,,6631,3.84e5,inactive
dpp,1,,5231,5.32e5,inactive
dpp,2,,5339,3.50e5,inactive
dpp,3,,7472,4.08e5,inactive
CG4951,1,,7711,3.61e5,inactive
CG34221,1,,5151,3.07e5,inactive
Roc2,1,,4844,2.51e5,inactive
Ser8,1,,7230,3.74e5,inactive
RpLP1,1,,10540,6.81e5,inactive
RpLP1,2,,8927,8.42e5,inactive
Poxm,1,,3772,3.38e5,inactive
Poxm,2,,5523,3.44e5,inactive
CG5569,1,,6042,3.55e5,inactive
stg,1,reporter ratio lowered past the hit cutoff,5603,3.82e5,active
Not3,1,,13889,2.15e6,inactive
Zasp67,1,,6555,4.55e5,inactive
ebi,1,,9410,3.44e5,inactive
CtsL2,1,,7688,3.85e5,inactive
bisc,1,,31709,7.89e5,inactive
beat-VII,1,,7439,5.37e5,inactive
beat-VII,2,,6779,4.93e5,inactive
beat-VII,3,reporter ratio raised past the hit cutoff,5767,3.17e5,inactive
beat-VII,4,,4451,4.65e5,inactive
Nepl8,1,,7443,4.81e5,inactive
CG32212 + hpRNA:CR33940,1,,5504,5.29e5,inactive
RpL38,1,,6690,2.97e5,inactive
CG11110,1,,6427,5.38e5,inactive
CG32095,1,,2572,2.70e5,inactive
Ugt301D1,1,,8484,5.11e5,inactive
Jon99Fii,1,,6234,3.76e5,inactive
Kdm3,1,,6075,3.10e5,inactive
Spn100A,1,,8186,3.78e5,inactive
smid,1,,6011,4.69e5,inactive
CG33136,1,,5155,3.31e5,inactive
Mef2,1,,7318,3.61e5,inactive
CG7560,1,,7063,4.49e5,inactive
lace,1,,26495,1.61e6,inactive
Bgb,1,,8784,3.55e5,inactive
CG12594,1,,6355,4.16e5,inactive
Plod,1,,7643,4.50e5,inactive
Plod,2,,5872,3.11e5,inactive
Tsp29Fb,1,,6967,3.77e5,inactive
snoRNA:U31:54Ec + snoRNA:snR38:54Eb + snoRNA:U27:54Eb + 8 more,1,,5539,3.11e5,inactive
Spt7,1,,7106,4.75e5,inactive
Oatp26F,1,,7487,4.32e5,inactive
Oatp26F,2,,7735,6.29e5,inactive
Oatp26F,3,,7915,4.27e5,inactive
CG15890,1,,4939,3.83e5,inactive
Dscam2,1,,4894,2.64e5,inactive
Dscam2,2,,6684,4.28e5,inactive
Dscam2,3,,5952,4.85e5,inactive
Dscam2,4,,6696,4.27e5,inactive
Dscam2,5,,3899,4.55e5,inactive
nolo,1,,15690,1.33e6,inactive
nolo,2,,6792,4.34e5,inactive
nolo,3,,7652,5.76e5,inactive
Rab9Db + Rab9D + Rab9E,1,,4863,3.22e5,inactive
CG12535,1,,5855,3.92e5,inactive
Hem,1,reporter ratio lowered past the hit cutoff,7639,4.50e5,inactive
CG11617,1,,6946,3.88e5,inactive
CG11617,2,,10581,6.00e5,inactive
serp,1,,7223,4.14e5,inactive
serp,2,,7086,3.98e5,inactive
CG3860,1,,10943,1.33e6,inactive
Ddx56,1,,5555,4.50e5,inactive
CG13801,1,,6574,4.50e5,inactive
HemK1,1,,42336,6.32e5,inactive
CaBP1,1,,28135,1.24e6,inactive
CG18139 (retired record) + Hmx,1,,6708,4.18e5,inactive
CG15499 (retired record),1,,8236,4.66e5,inactive
CG32687,1,,5563,4.43e5,inactive
CG32687,2,,6200,4.30e5,inactive
CG8520,1,,7687,4.32e5,inactive
dgo,1,,7895,3.60e5,inactive
Ac3,1,,8357,4.04e5,inactive
mRpL43,1,,3971,3.80e5,inactive
mRpL43,2,,4579,3.66e5,inactive
ana,1,,7632,4.20e5,inactive
Hsl,1,,12064,3.57e5,inactive
twz,1,,8110,4.76e5,inactive
DptB,1,,6859,4.31e5,inactive
Tsp86D,1,,6727,4.02e5,inactive
CG31784,1,,4463,2.76e5,inactive
TTLL4B,1,,27675,1.69e5,inactive
TTLL4B,2,reporter ratio lowered past the hit cutoff,,,inactive
CG9861,1,,13503,1.57e6,inactive
CG15202,1,,4895,4.12e5,inactive
CG4702,1,,9958,5.52e5,inactive
CG5194,1,,8604,3.84e5,inactive
